Our source for the binding values is PMC6991692.

The chains behind the UniProt entries cited, without tags or fusion partners. Where a name states a change or a piece, a line headed by the entry shows the natural chain unless it says otherwise.
UniProt Q8BGW2: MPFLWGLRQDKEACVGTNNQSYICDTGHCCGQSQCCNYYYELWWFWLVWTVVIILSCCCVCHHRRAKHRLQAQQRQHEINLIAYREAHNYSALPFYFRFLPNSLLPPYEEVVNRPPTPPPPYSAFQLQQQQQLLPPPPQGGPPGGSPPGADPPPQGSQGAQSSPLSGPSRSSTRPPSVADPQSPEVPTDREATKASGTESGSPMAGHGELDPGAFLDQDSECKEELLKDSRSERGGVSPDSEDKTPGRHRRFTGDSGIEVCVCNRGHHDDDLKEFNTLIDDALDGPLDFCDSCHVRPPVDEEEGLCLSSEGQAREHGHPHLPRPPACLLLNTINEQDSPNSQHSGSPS
UniProt Q8C863: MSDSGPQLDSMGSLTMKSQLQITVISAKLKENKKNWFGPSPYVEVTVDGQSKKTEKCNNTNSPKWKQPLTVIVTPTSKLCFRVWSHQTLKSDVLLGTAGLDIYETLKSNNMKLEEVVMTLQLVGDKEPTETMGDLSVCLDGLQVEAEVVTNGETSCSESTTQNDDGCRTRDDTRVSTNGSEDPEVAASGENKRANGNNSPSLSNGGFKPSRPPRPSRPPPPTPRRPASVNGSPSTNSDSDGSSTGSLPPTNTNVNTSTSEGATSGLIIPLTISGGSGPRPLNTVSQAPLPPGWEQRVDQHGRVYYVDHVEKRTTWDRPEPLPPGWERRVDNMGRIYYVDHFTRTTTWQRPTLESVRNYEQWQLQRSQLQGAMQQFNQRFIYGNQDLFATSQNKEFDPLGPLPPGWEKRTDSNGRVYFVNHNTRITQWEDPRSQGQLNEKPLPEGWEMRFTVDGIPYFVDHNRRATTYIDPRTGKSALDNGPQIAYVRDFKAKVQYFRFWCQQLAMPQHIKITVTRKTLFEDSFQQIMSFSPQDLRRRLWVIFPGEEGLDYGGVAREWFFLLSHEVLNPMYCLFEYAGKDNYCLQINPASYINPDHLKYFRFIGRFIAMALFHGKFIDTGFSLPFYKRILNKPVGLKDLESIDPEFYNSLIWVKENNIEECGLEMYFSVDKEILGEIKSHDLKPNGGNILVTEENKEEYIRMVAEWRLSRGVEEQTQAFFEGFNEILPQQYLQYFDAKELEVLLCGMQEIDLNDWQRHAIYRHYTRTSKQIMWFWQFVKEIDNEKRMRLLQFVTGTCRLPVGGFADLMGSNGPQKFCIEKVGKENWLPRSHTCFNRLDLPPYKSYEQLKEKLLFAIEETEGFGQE
UniProt Q9DBH0: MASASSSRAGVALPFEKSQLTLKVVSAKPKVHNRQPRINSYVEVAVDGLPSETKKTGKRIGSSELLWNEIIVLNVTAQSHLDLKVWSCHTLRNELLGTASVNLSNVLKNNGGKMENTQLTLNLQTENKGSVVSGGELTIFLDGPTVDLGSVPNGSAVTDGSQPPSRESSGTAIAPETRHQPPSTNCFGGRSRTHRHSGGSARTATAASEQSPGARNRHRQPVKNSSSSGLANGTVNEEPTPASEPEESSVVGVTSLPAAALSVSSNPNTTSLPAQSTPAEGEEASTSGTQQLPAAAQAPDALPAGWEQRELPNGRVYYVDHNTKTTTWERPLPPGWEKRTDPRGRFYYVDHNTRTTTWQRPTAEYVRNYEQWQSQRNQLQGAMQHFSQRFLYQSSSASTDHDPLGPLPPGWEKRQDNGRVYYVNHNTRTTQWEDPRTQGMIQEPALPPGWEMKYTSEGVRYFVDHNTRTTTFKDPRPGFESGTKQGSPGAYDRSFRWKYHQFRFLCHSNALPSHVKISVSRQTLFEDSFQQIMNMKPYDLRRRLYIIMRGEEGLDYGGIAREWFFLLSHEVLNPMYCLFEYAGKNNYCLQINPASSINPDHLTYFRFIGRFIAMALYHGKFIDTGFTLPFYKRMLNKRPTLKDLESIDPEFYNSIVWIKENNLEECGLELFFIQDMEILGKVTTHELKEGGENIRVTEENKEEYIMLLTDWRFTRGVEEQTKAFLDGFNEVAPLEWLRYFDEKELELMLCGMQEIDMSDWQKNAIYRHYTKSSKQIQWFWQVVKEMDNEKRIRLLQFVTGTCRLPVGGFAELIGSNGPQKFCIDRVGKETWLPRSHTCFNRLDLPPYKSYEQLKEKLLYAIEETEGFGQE

Test [1] concerns the target WBP1LΔN‐Myc (with segment containing all WW binding motifs deleted) (UniProt Q8BGW2). Nature of the test: co-IP; HEK293 cells transfected with WBP1L‐Myc or WBP1LΔN‐Myc together with ITCH or WWP2; WBP1L immunoprecipitation, immunoblot with antibody to ITCH or WWP2. (Immunoblotting shows a protein as a band on a membrane.)
Test [2] concerns the target WBP1LΔN expressed in J774 macrophage‐like cell line (UniProt Q8BGW2). Nature of the test: co-IP; J774 macrophage‐like cell line expressing wild‐type WBP1L or WBP1LΔN; endogenous ITCH co‐isolated (Figure S5).

These are yes or no findings as the source states them, for the method shown. In cells and extracts the contact can be indirect.

On to “ITCH, co‐expressed in HEK293 cells (from UniProt Q8C863 1-864) (enzyme)”, for which, in test [1], the binding result was “no binding”.

Consider “ITCH, endogenous (from UniProt Q8C863 1-864) (enzyme)”, for which the binding entry in test [2] is given as “no binding”.

On to “WWP2, co‐expressed in HEK293 cells (from UniProt Q9DBH0 1-870) (enzyme)”, for which, in test [1], the binding entry was “no binding”.
